Experiment in all cases: glycan array binding signal (z-score within array); higher = stronger binding
Holding throughout (settings): glycan notation: IUPAC condensed, linker removed

Assay [1] concerns the target Neu5Ac(a2-3)Gal(b1-4)[Fuc(a1-3)]GlcNAc(b1-3)Gal. A digest of the protocol:
(§1)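 The Consortium for Functional Glycomics database supplied 3228 glycan arrays, of which those lacking an available protein sequence were dropped. The binding signal, a within-array Z-score, was averaged across arrays of the same protein sequence and across linkers. Negative scores can be read as non-binding.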

Assay [2] addresses Neu5Ac(a2-3)Gal(b1-4)[Fuc(a1-3)]GlcNAc(b1-3)Gal(b1-4)GlcNAc. A digest of the protocol:
as §1

The target in assay [3] is Neu5Ac(a2-3)Gal(b1-4)[Fuc(a1-3)]GlcNAc(b1-3)Gal(b1-4)[Fuc(a1-3)]GlcNAc(b1-3)Gal(b1-4)[Fuc(a1-3)]GlcNAc. A digest of the protocol: as §1
Assay [4] has as its target Neu5Ac(a2-3)Gal(b1-4)[Fuc(a1-3)]GlcNAc(b1-3)GalNAc. A digest of the protocol: as §1
In assay [5] the target is Neu5Ac(a2-3)Gal(b1-4)[Fuc(a1-3)]GlcNAc(b1-6)[Gal(b1-3)]GalNAc. A digest of the protocol: as §1
In assay [6] the target is Neu5Ac(a2-3)Gal(b1-4)[Fuc(a1-3)]GlcNAc(b1-6)[Neu5Ac(a2-3)Gal(b1-3)]GalNAc. A digest of the protocol: as §1
Assay [7] addresses Neu5Ac(a2-3)Gal(b1-4)[Fuc(a1-3)]GlcNAc6S. In outline: as §1
For assay [8], the target named is Neu5Ac(a2-3)Gal6S(b1-4)GlcNAc. A digest of the protocol:
as §1

In assay [9] the target is Neu5Ac(a2-3)Gal6S(b1-4)[Fuc(a1-3)]GlcNAc. A digest of the protocol: as §1
The next assay has as its target Neu5Ac(a2-3)GalNAc. A digest of the protocol: as §1
Assay [10] deals with Neu5Ac(a2-3)GalNAc(b1-4)GlcNAc. A digest of the protocol:
as §1

In assay [11] the target is Neu5Ac(a2-3)[GalNAc(b1-4)]Gal(b1-4)Glc. A digest of the protocol: as §1
For assay [12], the target named is Neu5Ac(a2-3)[GalNAc(b1-4)]Gal(b1-4)GlcNAc. In outline: as §1
Assay [13] concerns the target Neu5Ac(a2-3)[GalNAc(b1-4)]Gal(b1-4)GlcNAc(b1-3)GalNAc. In outline: as §1
Assay [14] deals with Neu5Ac(a2-3)[Neu5Ac(a2-6)]GalNAc. In outline: as §1
Another assay has as its target Neu5Ac(a2-6)Gal. In outline: as §1
Assay [15] has as its target Neu5Ac(a2-6)Gal(b1-3)GlcNAc(b1-3)[Gal(b1-4)GlcNAc(b1-6)]Gal(b1-4)Glc. A digest of the protocol:
as §1

The target of the next assay is Neu5Ac(a2-6)Gal(b1-4)Glc. In outline:
as §1

Assay [16] concerns the target Neu5Ac(a2-6)Gal(b1-4)GlcNAc. In outline:
as §1

Assay [17] concerns the target Neu5Ac(a2-6)Gal(b1-4)GlcNAc(b1-2)Man. A digest of the protocol: as §1
The target of assay [18] is Neu5Ac(a2-6)Gal(b1-4)GlcNAc(b1-2)Man(a1-3)Man(b1-4)GlcNAc(b1-4)GlcNAc. In outline:
as §1

The target of assay [19] is Neu5Ac(a2-6)Gal(b1-4)GlcNAc(b1-2)Man(a1-3)[Gal(b1-4)GlcNAc(b1-2)Man(a1-6)]Man(b1-4)GlcNAc(b1-4)GlcNAc. A digest of the protocol:
as §1

The target of assay [20] is Neu5Ac(a2-6)Gal(b1-4)GlcNAc(b1-2)Man(a1-3)[GlcNAc(b1-2)Man(a1-6)]Man(b1-4)GlcNAc(b1-4)GlcNAc. In outline:
as §1

The list shows a part of the results.

The record followed here is the supplement of paper PMC8728848.

B1: AFL6 (Aspergillus fumigatus), Q4WKJ1 (protein)
chain: MSFHLTAEDIRIEDGHRLVARLRNADGDLQDASIDLNTCLGNDNGHFQWDGVDFSHSAQDVHFAIEGGGQVPVLRAQLANQDGEFQDADVNLSERIENINGEFVFH
As for B1, the “glycan array binding signal (z-score)” value in assay [1] is -0.36; in assay [2], 0.001; in [3], -0.489; in [4] it was 0.871; in assay [5], -0.324; in [6], 0.974. Further, the “glycan array binding signal (z-score)” value in [7] was -0.407; in assay [8], 0.324; in assay [9], -0.72; with Neu5Ac(a2-3)GalNAc it was -0.183; in assay [10], -0.053; in assay [11], 0.054. For the same molecule, the “glycan array binding signal (z-score)” value in assay [12] is -0.458; in assay [13] it was -0.263; in [14], -0.403; with Neu5Ac(a2-6)Gal, -0.393; in [15], -0.324; with Neu5Ac(a2-6)Gal(b1-4)Glc, -0.418. The “glycan array binding signal (z-score)” value is -0.308 in assay [16]; 0.222 in assay [17]; 0.065 in [18]; 0.015 in [19]; 0.545 in [20].
